For one substance, binding results are on record in article PMC4734764.

Protein sequences, listed by entry. Tags and fused reporters are not part of them.
UniProt Q9UKV8: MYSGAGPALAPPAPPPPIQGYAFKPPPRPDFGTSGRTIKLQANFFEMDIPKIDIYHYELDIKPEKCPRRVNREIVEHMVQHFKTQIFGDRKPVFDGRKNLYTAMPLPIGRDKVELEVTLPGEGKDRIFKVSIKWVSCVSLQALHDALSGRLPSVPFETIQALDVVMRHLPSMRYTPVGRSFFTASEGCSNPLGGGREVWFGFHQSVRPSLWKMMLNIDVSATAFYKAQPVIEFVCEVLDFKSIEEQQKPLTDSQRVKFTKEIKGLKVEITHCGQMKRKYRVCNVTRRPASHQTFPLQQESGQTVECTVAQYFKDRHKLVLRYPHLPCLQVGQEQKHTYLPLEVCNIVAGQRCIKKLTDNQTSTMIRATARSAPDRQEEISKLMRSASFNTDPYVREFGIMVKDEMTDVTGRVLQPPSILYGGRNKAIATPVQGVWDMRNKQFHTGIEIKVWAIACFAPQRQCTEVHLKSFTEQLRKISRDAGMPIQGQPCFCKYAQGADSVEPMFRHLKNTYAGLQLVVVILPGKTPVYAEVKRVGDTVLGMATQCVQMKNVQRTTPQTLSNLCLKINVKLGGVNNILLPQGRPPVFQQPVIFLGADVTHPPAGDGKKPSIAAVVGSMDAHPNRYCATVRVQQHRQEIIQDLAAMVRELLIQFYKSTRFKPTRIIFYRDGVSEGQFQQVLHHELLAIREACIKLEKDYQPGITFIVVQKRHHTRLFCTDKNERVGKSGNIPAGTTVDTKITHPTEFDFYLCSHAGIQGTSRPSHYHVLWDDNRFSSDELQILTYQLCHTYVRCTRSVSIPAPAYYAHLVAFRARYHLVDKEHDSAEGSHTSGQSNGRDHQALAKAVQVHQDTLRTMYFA
UniProt Q91572: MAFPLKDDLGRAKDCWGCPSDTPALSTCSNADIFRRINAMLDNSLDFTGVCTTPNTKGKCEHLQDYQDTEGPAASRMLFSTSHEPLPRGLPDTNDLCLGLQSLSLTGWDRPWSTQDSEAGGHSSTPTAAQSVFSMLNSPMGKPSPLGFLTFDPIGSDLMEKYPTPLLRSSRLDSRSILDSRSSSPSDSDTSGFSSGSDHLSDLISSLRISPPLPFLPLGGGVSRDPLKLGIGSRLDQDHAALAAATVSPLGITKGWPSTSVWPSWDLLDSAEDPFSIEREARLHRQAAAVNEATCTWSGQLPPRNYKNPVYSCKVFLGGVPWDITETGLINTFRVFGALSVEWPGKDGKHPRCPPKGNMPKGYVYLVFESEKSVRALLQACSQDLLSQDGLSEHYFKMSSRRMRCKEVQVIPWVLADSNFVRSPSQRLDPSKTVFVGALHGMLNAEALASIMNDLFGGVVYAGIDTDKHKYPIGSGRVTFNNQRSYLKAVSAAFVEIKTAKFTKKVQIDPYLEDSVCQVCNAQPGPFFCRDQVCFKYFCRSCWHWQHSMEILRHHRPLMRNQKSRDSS

Experiment [1] addresses human Ago2 (FLAG/HA-tagged) (human) (UniProt Q9UKV8). The experiment is described as follows: co-IP; FLAG-M2 magnetic beads; lysate of oocytes injected with hAgo2-FLAG mRNA, lysed in NET buffer with 20 pg/μl RNAse A; 2 h 30 min at 4°C; blot with anti-FLAG and anti-CPEB1.
Experiment [2] has as its target HA-tagged Xenopus tropicalis Ago2 (Xenopus tropicalis) (UniProt Q6DJB9). The experiment is described as follows: co-IP; anti-HA-biotin antibodies on streptavidin Dynabeads; lysate of oocytes injected with xtAgo2-HA mRNA (with or without progesterone); 150 mM NaCl, 25 mM Tris-HCl pH 7.4, 5 mM EDTA, 0.5% NP40, 5 mM DTT; 2 h at 4°C; blot with anti-HA and anti-CPEB1.

These are yes or no findings as the source states them, for the method shown. In cells and extracts the contact can be indirect. Some binding calls cover weakened binding; strength is not graded here.

Consider “CPE-binding protein (CPEB) (from UniProt Q91572 1-568)”, for which the binding entry in experiment [1] and in experiment [2] was “binds” in each case.
